Experimental findings from paper PMC10457367 are described below.

The test concerns the target T1, SEC31A (expressed from a plasmid in HEK293 cells) (human) (UniProt O94979).
T1 sequence: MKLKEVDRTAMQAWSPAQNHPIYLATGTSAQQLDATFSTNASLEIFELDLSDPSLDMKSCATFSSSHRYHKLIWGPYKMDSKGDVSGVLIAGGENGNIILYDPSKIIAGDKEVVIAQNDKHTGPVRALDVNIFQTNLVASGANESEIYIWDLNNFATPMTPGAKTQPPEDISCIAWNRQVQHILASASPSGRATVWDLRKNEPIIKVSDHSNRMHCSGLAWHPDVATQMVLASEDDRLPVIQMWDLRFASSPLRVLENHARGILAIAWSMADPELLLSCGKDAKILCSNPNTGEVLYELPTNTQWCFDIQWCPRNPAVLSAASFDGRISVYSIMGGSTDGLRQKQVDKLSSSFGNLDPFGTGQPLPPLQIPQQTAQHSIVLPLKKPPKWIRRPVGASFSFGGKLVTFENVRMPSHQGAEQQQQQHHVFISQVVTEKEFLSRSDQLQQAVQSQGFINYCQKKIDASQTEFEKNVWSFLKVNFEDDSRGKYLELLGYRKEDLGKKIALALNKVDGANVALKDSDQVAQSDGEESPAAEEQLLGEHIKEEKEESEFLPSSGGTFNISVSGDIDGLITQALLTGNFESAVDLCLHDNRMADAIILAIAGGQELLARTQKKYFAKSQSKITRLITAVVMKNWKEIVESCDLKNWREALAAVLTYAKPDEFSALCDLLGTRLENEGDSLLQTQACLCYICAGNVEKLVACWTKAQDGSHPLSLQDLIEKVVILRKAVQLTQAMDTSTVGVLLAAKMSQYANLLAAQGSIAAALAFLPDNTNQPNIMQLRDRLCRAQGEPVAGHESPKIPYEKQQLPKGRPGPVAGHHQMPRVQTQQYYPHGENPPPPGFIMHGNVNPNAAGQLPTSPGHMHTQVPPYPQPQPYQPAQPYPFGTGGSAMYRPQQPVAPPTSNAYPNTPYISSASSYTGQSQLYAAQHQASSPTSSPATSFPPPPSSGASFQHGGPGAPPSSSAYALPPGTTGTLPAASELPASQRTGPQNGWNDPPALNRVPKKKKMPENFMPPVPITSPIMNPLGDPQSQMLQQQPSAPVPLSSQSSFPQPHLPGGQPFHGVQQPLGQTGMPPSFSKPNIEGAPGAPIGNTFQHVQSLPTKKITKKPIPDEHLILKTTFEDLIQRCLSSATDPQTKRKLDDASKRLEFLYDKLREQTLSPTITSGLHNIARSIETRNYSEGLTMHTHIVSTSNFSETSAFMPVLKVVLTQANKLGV
Briefly: co-IP; HEK293 cells transfected with the indicated plasmids; lysates 48 h later on anti-FLAG M2 Magnetic Beads or anti-GFP mAb-Magnetic Beads; washed four times with 50 mM HEPES pH 7.5, 0.15 M NaCl, 0.1% NP-40; western blot.

These are yes or no findings as the source states them, for the method shown. In cells and extracts the contact can be indirect.

B1: LZTR1 (expressed from a plasmid in HEK293 cells) (protein, UniProt Q8N653 1-840)
chain: MAGPGSTGGQIGAAALAGGARSKVAPSVDFDHSCSDSVEYLTLNFGPFETVHRWRRLPPCDEFVGARRSKHTVVAYKDAIYVFGGDNGKTMLNDLLRFDVKDCSWCRAFTTGTPPAPRYHHSAVVYGSSMFVFGGYTGDIYSNSNLKNKNDLFEYKFATGQWTEWKIEGRLPVARSAHGATVYSDKLWIFAGYDGNARLNDMWTIGLQDRELTCWEEVAQSGEIPPSCCNFPVAVCRDKMFVFSGQSGAKITNNLFQFEFKDKTWTRIPTEHLLRGSPPPPQRRYGHTMVAFDRHLYVFGGAADNTLPNELHCYDVDFQTWEVVQPSSDSEVGGAEVPERACASEEVPTLTYEERVGFKKSRDVFGLDFGTTSAKQPTQPASELPSGRLFHAAAVISDAMYIFGGTVDNNIRSGEMYRFQFSCYPKCTLHEDYGRLWESRQFCDVEFVLGEKEECVQGHVAIVTARSRWLRRKITQARERLAQKLEQEAAPVPREAPGVAAGGARPPLLHVAIREAEARPFEVLMQFLYTDKIKYPRKGHVEDVLLIMDVYKLALSFQLCRLEQLCRQYIEASVDLQNVLVVCESAARLQLSQLKEHCLNFVVKESHFNQVIMMKEFERLSSPLIVEIVRRKQQPPPRTPLDQPVDIGTSLIQDMKAYLEGAGAEFCDITLLLDGHPRPAHKAILAARSSYFEAMFRSFMPEDGQVNISIGEMVPSRQAFESMLRYIYYGEVNMPPEDSLYLFAAPYYYGFYNNRLQAYCKQNLEMNVTVQNVLQILEAADKTQALDMKRHCLHIIVHQFTKVSKLPTLRSLSQQLLLDIIDSLASHISDKQCAELGADI
For B1, the binding entry is given as “no binding”.
